What all share (settings): 5 µM; treatment: days 7-14 after plating, readout day 21
The test system of assay [1] is hPSC-derived cortical neurons (WA09). Nature of the assay: nucleus area z-score vs screen plate; higher = larger nuclei (more mature).
Assay [2] shares this test system. Briefly: total neurite length per nucleus (MAP2) z-score; higher = more neurite growth.
Assay [3] has the same test system. Briefly: nucleus roundness z-score vs screen plate; higher = rounder nuclei (more mature).
The test system is the same in assay [4]. Briefly: KCl-induced FOS+/EGR-1+ double-positive nuclei fraction z-score (KCl minus unstimulated); higher = stronger activity-induced IEG response.

Counter-ions that a name gives are not always drawn. The list shows a part of the results. Small differences around the control level are noise.

For `CCCCCCCCCCCC[N+](C)(C)CCOc1ccccc1` [Domiphen Bromide], the nucleus area z-score in assay [1] was -14.1. Further, the “total neurite length per nucleus (z-score)” value in assay [2] is -4.58. In assay [3], the nucleus roundness z-score is -5.88. The “KCl-induced FOS+/EGR-1+ double-positive nuclei fraction z-score” value in assay [4] is -0.127.

`Nc1nc(=O)c2c([nH]1)NCC(CNc1ccc(C(=O)N[C@@H](CCC(=O)O)C(=O)O)cc1)N2C=O` (stereo not given in full) [Leucovorin Calcium Pentahydrate] had a nucleus area z-score in assay [1] of -0.212. Also, the “total neurite length per nucleus (z-score)” value in assay [2] was 0.309. In assay [3], this compound gave a nucleus roundness z-score of 0.685. Further, the “KCl-induced FOS+/EGR-1+ double-positive nuclei fraction z-score” value in assay [4] was -0.306.

In the case of `NC(=O)Nc1cc(-c2cccc(F)c2)sc1C(=O)N[C@H]1CCCNC1`, in assay [1], the nucleus area z-score is -0.132. Also, in assay [2], the “total neurite length per nucleus (z-score)” value amounted to 2.13. The compound also showed a nucleus roundness z-score in assay [3] of 0.949. The “KCl-induced FOS+/EGR-1+ double-positive nuclei fraction z-score” value in assay [4] was -1.26.

As for `CN(C)c1ccc(-c2nc3ncc(Cl)c(N4CCN(CC(=O)Nc5nccs5)CC4)c3[nH]2)cc1`, the nucleus area z-score in assay [1] was -0.504. In addition, the “total neurite length per nucleus (z-score)” value in assay [2] is 0.222. Also, in assay [3], the nucleus roundness z-score amounted to 0.654. Besides, the “KCl-induced FOS+/EGR-1+ double-positive nuclei fraction z-score” value in assay [4] is -0.416.

As to `O=C(Nc1ncc(SCCN2CCCC2)s1)[C@]1(c2ccc(S(=O)(=O)C3CC3)cc2)C[C@H]1C1CCCCC1`, the nucleus area z-score in assay [1] is -15.5. In addition, the “total neurite length per nucleus (z-score)” value in assay [2] was -5.44. For the same compound, in assay [3], the nucleus roundness z-score turned out to be 0.796. Also, in assay [4], the “KCl-induced FOS+/EGR-1+ double-positive nuclei fraction z-score” value is -1.03.

On to `CN1CCN(CCCN2c3ccccc3Sc3ccc(Cl)cc32)CC1` [Prochlorperazine dimaleate salt], for which the nucleus area z-score in assay [1] was -12.5. Further, in assay [2], the “total neurite length per nucleus (z-score)” value was -5.07. In assay [3], the nucleus roundness z-score came to 0.607. Moreover, the “KCl-induced FOS+/EGR-1+ double-positive nuclei fraction z-score” value in assay [4] is -0.634.

In the case of `CC(C)(C)c1nc(-c2cccc(NS(=O)(=O)c3c(F)cccc3F)c2F)c(-c2ccnc(N)n2)s1`, the nucleus area z-score in assay [1] was determined as 4.29. Moreover, the “total neurite length per nucleus (z-score)” value in assay [2] was -2.13. The nucleus roundness z-score in assay [3] was -2.7. Moreover, the “KCl-induced FOS+/EGR-1+ double-positive nuclei fraction z-score” value in assay [4] is -0.39.

The compound `NC(=O)c1ncn([C@@H]2O[C@H](CO)[C@@H](O)[C@H]2O)c1N` [Acadesine] yielded a nucleus area z-score in assay [1] of 1.05. Besides, the “total neurite length per nucleus (z-score)” value in assay [2] is -1.52. In assay [3], this compound registered a nucleus roundness z-score of -0.907. For the same compound, the “KCl-induced FOS+/EGR-1+ double-positive nuclei fraction z-score” value in assay [4] was -0.943.

`O=C(O)C(=O)O.[NH-][C@@H]1CCCC[C@H]1[NH-].[Pt+2]` [Oxaliplatin] returned a nucleus area z-score in assay [1] of -0.339. For the same compound, the “total neurite length per nucleus (z-score)” value in assay [2] was 1.07. The nucleus roundness z-score in assay [3] was 1.12. Also, in assay [4], the “KCl-induced FOS+/EGR-1+ double-positive nuclei fraction z-score” value came to 1.66.

`Cc1cc2c(C(N)=O)cccc2n1-c1nc2c(c(NCc3ccccc3)n1)COCC2` yielded a nucleus area z-score in assay [1] of -17.1. The “total neurite length per nucleus (z-score)” value in assay [2] is -6.74. The nucleus roundness z-score in assay [3] is -10.7. Besides, the “KCl-induced FOS+/EGR-1+ double-positive nuclei fraction z-score” value in assay [4] is -1.01.

The record behind these values is the supplement of paper PMC11348887.
